Source: patent US20250368962A1, “THREE-DIMENSIONAL HEPATIC TISSUE AND METHOD OF MANUFACTURING THE SAME” (TOPPAN HOLDINGS INC., priority 2023, published 2025)

Legend:
[1] = test system: three-dimensional hepatic tissue consisting only of human hepatocytes (PXB cells); experiment: ATP assay (CellTiter Glo 3D) viability after exposure to hepatotoxicity-inducing compounds, Test Example 6 Condition 1; assay type: cell-based; details: Hepatocyte, calculated from cell viability (ATP), exposure 168 hours from day 8 of culture, no bile acids, read-out: IC50 Condition 1 (present tissue)
Protocol: The resulting mixture was centrifuged at room temperature at 400×g for 2 minutes, the supernatant was removed, and the cells were resuspended in an HCM (product number “CC-3198”, manufactured by Lonza) containing 10 U/mL thrombin (product number “R4648”, manufactured by Sigma-Aldrich) and 1 v/v % endothelial cell growth supplement (ECGS) (product number “1052”, manufactured by Sciencell) to a cell density of 1.95×10^4 cells/2 μL to obtain a cell suspension.
2 μL of an HCM containing 5 mg/mL fibrinogen and 1 v/v % ECGS was added to a 48-well microplate (product number “3830-048”, manufactured by AGC Techno Glass) to form a droplet. The cell suspension was added to the interior of each droplet, and the 48-well microplate was then left to stand in an incubator for 40 minutes to form a fibrin gel in which the human hepatocytes were embedded. 0.5 mL of HCM containing 1 v/v % ECGS was added to each well in which the fibrin gel had been formed, and the cells were cultured under the conditions of 37° C. and 5% CO2. After the start of the culture, the medium was changed every two days.

[2] = test system: spheroids consisting only of human hepatocytes (PXB cells); experiment: ATP assay (CellTiter Glo 3D) viability after exposure to hepatotoxicity-inducing compounds, Test Example 6 Condition 2; assay type: cell-based; details: calculated from cell viability (ATP), hepatocyte spheroids, exposure 168 hours, no bile acids, read-out: IC50 Condition 2 (spheroid)

CC/C(=C(\c1ccccc1)c1ccc(OCCN(C)C)cc1)c1ccccc1 [Tamoxifen]
IC50 [1]: 6.3 µM | IC50 [2]: 6.4 µM
